# Percent effect of library compounds

Source: ChEMBL document CHEMBL3988442, “University of Dundee, Small-Polar-MMV Screening Library” (2021).

Each number is a percent effect as filed.
How 0% and 100% were set is not recorded. Most values in the screen are low, and negative values occur.
The compounds are a random part of those screened.
Two or more numbers in one place are separate tests of the same structure; such repeats can differ widely.

Mtb cholesterol medium: 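Whole-cell growth test on Mycobacterium tuberculosis, read after 4 days in a medium based on cholesterol and the lipid DPPC; the read-out is not stated. Compounds at 50 µM. Higher reads as more growth inhibition (inferred: compounds with an IC50 in retests scored well above the rest). About 69,000 compounds were tested under these conditions; 0.54% (about 370) showed 50% or more at least once.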
Mtb glucose medium: 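Whole-cell growth test on Mycobacterium tuberculosis, read after 3 days in glucose-containing 7H9 medium; the read-out is not stated. Tested at 50 µM. Higher reads as more growth inhibition (inferred: compounds with an IC50 in retests scored well above the rest). About 69,000 compounds were tested under these conditions; 1.1% (about 760) showed 50% or more at least once.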

| Compound | Mtb cholesterol medium | Mtb glucose medium |
|---|---|---|
| `CC(C)C1CN(c2ncccn2)CCC(=O)N1CC1CC1` (stereo not shown) | -3.106 and -13.7 | 8.345 |
| `O=C(CCN1CCOC1=O)Nc1cnn(-c2ccccc2Cl)c1` | -1.025 | -15.89 and -3.911 |
| `Cc1c(C(C)Nc2ncnc3sccc23)cnn1C` (stereo not shown) | 10.98 | 5.808 |
| `CCC(CNC(=O)c1ccc(=O)[nH]n1)N1CCc2ccccc2C1` (stereo not shown) | 9.932 | -2.485 |
| `Cc1nccn1CCCn1cncc1-c1ccc2c(c1)CCC(C)N2C.Cl` (stereo not shown) | 8.504 and 14.31 | 43.25 |
| `N#Cc1ncn(CC(=O)Nc2cc(Cl)ccc2F)n1` | -15.43 | -5.006 |
| `O=C(C1CCC1)N1CCOc2cccc(F)c21` | -14.3 | 8.89 |
| `Cc1cccc(OCC(O)CN2CCC(c3ccn[nH]3)CC2)c1` (stereo not shown) | -2.514 | -8.355 |
| `O=C(OCCF)c1cccc(C(=O)N2CCCC2)n1` | -12.81 and -12.3 | -21.95 |
| `CCn1nnc2c1C(COC)CN(C(=O)Cc1ccccn1)C2` (stereo not shown) | -3.327 | 11.08 |
| `COc1ccc(CNc2cnn(CC(F)F)c2)cc1` | 1.267 | 27.09 |
| `CCN(C(=O)c1nc2c(s1)CCCN2Cc1ccccc1)C(C)C` | 3.773 | -23.97 and -0.06204 |
| `Cc1nc(C)n(CC2CCCN2Cc2nc(C3CC3)no2)n1` (stereo not shown) | -6.599 | 11.05 |
| `Cc1cnc(CN(C)C2CCN(Cc3nc4ccccc4o3)C2)o1` (stereo not shown) | -4.552 | -13.75 |
| `O=C(c1ccc(Cl)cc1)N1CCCn2nnc(Cn3cccn3)c2C1` | 6.661 | 15.44 |
| `NS(=O)(=O)c1cccnc1Nc1c(Cl)cccc1Cl` | -45.77 | -6.591 and -28.85 |
| `O=C(O)C(F)(F)F.[H][C@@]12CN(C(=O)c3ccc(O)cc3)C[C@]1([H])OCCN2c1ncccn1` | 0.4775 | 0.9899 |
| `Cc1ccoc1C(=O)N1CCOC2(CCCC2)C1` | 10.1 | -1.798 |
| `O=C(O)C(F)(F)F.[H][C@@]12COC[C@]1([H])[C@H](NC(=O)c1cccn1C)CN2CC1CC1` | -0.6126 | -7.013 |
| `[H][C@]12CN(c3cnn(C)c3)C(=O)[C@@]1([H])CN(S(=O)(=O)CC)C2` | 6.339 | 4.351 and -3.363 |
| `CC(C)CCC(=O)N1CCN(C(=O)c2ccc3nccn3c2)CC1` | 1.068 | 1.877 |
| `CCNC(=O)Nc1ncc(-c2cccnc2)s1` | -0.3374 | 7.554 |
| `Cc1ccccc1C(CNc1ncnc2c1CCNC2)N(C)C` (stereo not shown) | 5.322 and -6.829 | -4.084 |
| `CC(=O)c1cn(CC(=O)N2CCC3(CC2)OCCO3)c2ccccc12` | -3.075 | 4.377 |
| `CS(=O)(=O)N1CCC(Oc2ccc(C(=O)NCCC(N)=O)cc2Cl)CC1` | -28.72 | -11.74 |
| `Cc1ccc(C2CSCCN2C(=O)c2cccs2)o1` (stereo not shown) | -13.69 | -33.37 and 2.501 |
| `CC(NC(=O)Nc1cccnc1N1CCCC1)c1ccncc1` (stereo not shown) | -24.71 | -11.74 |
| `CN(C)CCN1CC(C(=O)N(C)Cc2cc3cc(F)ccc3[nH]2)CC1=O` (stereo not shown) | -15.8 | -0.8878 |
| `Cc1cc(NC(=O)CCN2CCCCC2Cn2cccn2)no1` (stereo not shown) | 12.41 | 7.341 |
| `CCc1sc(-c2nnc(CNCCn3cc(C)cn3)o2)cc1C` | 10.29 | 30.79 |
| `Cc1nccn1CCC1CCN(C(=O)C2CC3(CCNCC3)CN2)CC1` (stereo not shown) | 5.783 | -1.345 and -2.206 |
| `NCCc1c(-c2ccc(F)cc2)[nH][nH]c1=O` | 11.16 | 13.1 |
| `CCCNC(=O)C1CCN(Cc2csc(C(C)(C)C)n2)CC1` | -10.45 | -21.45 |
| `CCOc1ccc(C2CCCN2C(=O)NCCn2ccnc2)cc1` (stereo not shown) | 6.521 | -3.162 |
| `CS(=O)(=O)NCCN1CCSCC1c1ccc(Cl)cc1` (stereo not shown) | 14.95 | 15.88 and 8.267 |
| `COc1ccc(CN(C)CC(=O)c2ccc3[nH]c(=O)[nH]c3c2)cc1F` | -29.1 | -12.02 |
| `Cc1cc(COc2ccc(OC3CCCCNC3=O)cc2)on1` (stereo not shown) | -9.332 | -4.961 |
| `CC(C)OCC(=O)N1CCC(c2ncncc2-c2ccnc(N)c2)C1` (stereo not shown) | -16.66 | -17.76 |
| `CCNC(=O)NC(=O)CNC(C)(C)c1ccc2c(c1)OCO2` | 12.11 | -2.39 and -6.064 |
| `Cc1nccn1-c1cc(CNC(=O)C2CCCO2)ccn1` (stereo not shown) | -7.819 | 26.19 |
| `CC(C)(C)n1ncc2c(=O)n(CC(=O)NCCc3ccccc3)cnc21` | -13.62 | 8.078 and 3.21 |
| `CC(C)(C)c1nnc(CN2CCN(C(=O)CC3CCCCC3)CC2)o1` | 17.61 | 30.61 and -6.806 |
| `Cc1cnn(C2CN(CC(O)Cn3cccn3)C2)c1` (stereo not shown) | 14.1 | 6.199 and -1.523 |
| `COCc1nc(CN2CC(C)(c3ccccc3)CCC2=O)no1` (stereo not shown) | -7.923 and 2 | -13.16 |

For reference, 6 entries once more:

Compound	Mtb cholesterol medium	Mtb glucose medium
CN(C)CCN1CC(C(=O)N(C)Cc2cc3cc(F)ccc3[nH]2)CC1=O (stereo not shown)	-15.8	-0.8878
N#Cc1ncn(CC(=O)Nc2cc(Cl)ccc2F)n1	-15.43	-5.006
CCNC(=O)NC(=O)CNC(C)(C)c1ccc2c(c1)OCO2	12.11	-2.39 and -6.064
CC(C)C1CN(c2ncccn2)CCC(=O)N1CC1CC1 (stereo not shown)	-3.106 and -13.7	8.345
Cc1cc(COc2ccc(OC3CCCCNC3=O)cc2)on1 (stereo not shown)	-9.332	-4.961
CC(NC(=O)Nc1cccnc1N1CCCC1)c1ccncc1 (stereo not shown)	-24.71	-11.74